{"source": "PubChem BioAssay AID1224830 (NIAID, 2016)", "purpose": "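Regulators of TLR4 signalling towards TNF-alpha in macrophage-like cells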 (primary screen)", "system": "human THP-1 monocytic leukaemia cells, TNF dual-luciferase reporter clone, PMA-differentiated to macrophage-like cells", "knock-down reagent": "siRNA pool against human genes, 50 nM", "time to read-out": "LPS for 4 h, given about 3 days after siRNA transfection", "treatment": "bacterial LPS (TLR4 ligand), 10 ng/ml", "measured": "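TNF firefly reporter luminescence divided by renilla, normalised to the plate median, then turned into a robust z-score for each replicate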", "reading the numbers": "TNF reporter robust z-score: higher = stronger TNF reporter response to LPS", "rule for the call": "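Each well counts as active if its z-score is over 2.8 or under -1.5; controls are left without a call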", "note": "The whole screen tested about 18,000 reagents; shown is a random part of them. Of all reagents, about 2,900 (16%) are marked active. 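Calls are made per well; low scores hint the gene aids the LPS response, high scores that it dampens it.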 Entries without a mark were called inactive. Repeated entries: four replicate wells of each siRNA pool."}
{"Target gene": "GDF6", "PubChem SID": "SID315464693", "TNF reporter robust z-score": -0.87}
{"Target gene": "GDF6", "PubChem SID": "SID315464693", "TNF reporter robust z-score": -0.56}
{"Target gene": "GDF6", "PubChem SID": "SID315464693", "TNF reporter robust z-score": -0.31}
{"Target gene": "GDF6", "PubChem SID": "SID315464693", "TNF reporter robust z-score": 0.04}
{"Target gene": "SUCNR1", "PubChem SID": "SID315458106", "TNF reporter robust z-score": 0.8}
{"Target gene": "SUCNR1", "PubChem SID": "SID315458106", "TNF reporter robust z-score": 1.22}
{"Target gene": "SUCNR1", "PubChem SID": "SID315458106", "TNF reporter robust z-score": 1.03}
{"Target gene": "BCAS1", "PubChem SID": "SID315452637", "TNF reporter robust z-score": "2.87 (active)"}
{"Target gene": "BCAS1", "PubChem SID": "SID315452637", "TNF reporter robust z-score": 2.51}
{"Target gene": "BCAS1", "PubChem SID": "SID315452637", "TNF reporter robust z-score": -0.03}
{"Target gene": "BCAS1", "PubChem SID": "SID315452637", "TNF reporter robust z-score": -0.04}
{"Target gene": "CILK1", "PubChem SID": "SID315454822", "TNF reporter robust z-score": -0.48}
{"Target gene": "CILK1", "PubChem SID": "SID315454822", "TNF reporter robust z-score": 1.45}
{"Target gene": "CILK1", "PubChem SID": "SID315454822", "TNF reporter robust z-score": 0.1}
{"Target gene": "CILK1", "PubChem SID": "SID315454822", "TNF reporter robust z-score": 0.83}
{"Target gene": "SMARCD3", "PubChem SID": "SID315451532", "TNF reporter robust z-score": 1.37}
{"Target gene": "SMARCD3", "PubChem SID": "SID315451532", "TNF reporter robust z-score": 1.67}
{"Target gene": "SMARCD3", "PubChem SID": "SID315451532", "TNF reporter robust z-score": 0.31}
{"Target gene": "SMARCD3", "PubChem SID": "SID315451532", "TNF reporter robust z-score": -0.98}
{"Target gene": "DEFB130A", "PubChem SID": "SID315463388", "TNF reporter robust z-score": -1.19}
{"Target gene": "DEFB130A", "PubChem SID": "SID315463388", "TNF reporter robust z-score": -0.21}
{"Target gene": "DEFB130A", "PubChem SID": "SID315463388", "TNF reporter robust z-score": 0.59}
{"Target gene": "DEFB130A", "PubChem SID": "SID315463388", "TNF reporter robust z-score": 1.17}
{"Target gene": "SOD1", "PubChem SID": "SID315451572", "TNF reporter robust z-score": -0.44}
{"Target gene": "SOD1", "PubChem SID": "SID315451572", "TNF reporter robust z-score": -0.78}
{"Target gene": "SOD1", "PubChem SID": "SID315451572", "TNF reporter robust z-score": 0.18}
{"Target gene": "SOD1", "PubChem SID": "SID315451572", "TNF reporter robust z-score": -0.37}
{"Target gene": "ENGASE", "PubChem SID": "SID315458984", "TNF reporter robust z-score": -0.74}
{"Target gene": "ENGASE", "PubChem SID": "SID315458984", "TNF reporter robust z-score": 0.52}
{"Target gene": "ENGASE", "PubChem SID": "SID315458984", "TNF reporter robust z-score": -0.63}
{"Target gene": "ENGASE", "PubChem SID": "SID315458984", "TNF reporter robust z-score": 1.24}
{"Target gene": "IFNA6", "PubChem SID": "SID315449411", "TNF reporter robust z-score": 0.2}
{"Target gene": "IFNA6", "PubChem SID": "SID315449411", "TNF reporter robust z-score": 1.27}
{"Target gene": "IFNA6", "PubChem SID": "SID315449411", "TNF reporter robust z-score": "3.72 (active)"}
{"Target gene": "IFNA6", "PubChem SID": "SID315449411", "TNF reporter robust z-score": 0.77}
